Test [1] addresses T1, SETD8 (lysine methyltransferase 5A) (human (endogenous in A673 and other ES cell lines)) (UniProt Q9NQR1).
T1 sequence: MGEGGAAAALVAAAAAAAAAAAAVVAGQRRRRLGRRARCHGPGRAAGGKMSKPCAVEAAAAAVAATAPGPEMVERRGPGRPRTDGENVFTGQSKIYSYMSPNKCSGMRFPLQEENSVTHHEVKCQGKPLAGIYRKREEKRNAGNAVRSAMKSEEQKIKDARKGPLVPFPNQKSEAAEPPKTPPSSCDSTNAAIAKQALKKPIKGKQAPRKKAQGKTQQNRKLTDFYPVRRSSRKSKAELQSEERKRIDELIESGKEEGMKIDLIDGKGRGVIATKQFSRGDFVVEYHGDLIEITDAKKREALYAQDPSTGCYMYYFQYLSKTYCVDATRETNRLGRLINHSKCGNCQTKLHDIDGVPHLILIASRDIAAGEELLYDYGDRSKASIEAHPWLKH
Put plainly: co-IP; interaction detected in the cytoplasm and in the nucleus of ES cells (Fig. S6E, F).

Amino acid sequences for entries named in this document (tags omitted).
UniProt P23443: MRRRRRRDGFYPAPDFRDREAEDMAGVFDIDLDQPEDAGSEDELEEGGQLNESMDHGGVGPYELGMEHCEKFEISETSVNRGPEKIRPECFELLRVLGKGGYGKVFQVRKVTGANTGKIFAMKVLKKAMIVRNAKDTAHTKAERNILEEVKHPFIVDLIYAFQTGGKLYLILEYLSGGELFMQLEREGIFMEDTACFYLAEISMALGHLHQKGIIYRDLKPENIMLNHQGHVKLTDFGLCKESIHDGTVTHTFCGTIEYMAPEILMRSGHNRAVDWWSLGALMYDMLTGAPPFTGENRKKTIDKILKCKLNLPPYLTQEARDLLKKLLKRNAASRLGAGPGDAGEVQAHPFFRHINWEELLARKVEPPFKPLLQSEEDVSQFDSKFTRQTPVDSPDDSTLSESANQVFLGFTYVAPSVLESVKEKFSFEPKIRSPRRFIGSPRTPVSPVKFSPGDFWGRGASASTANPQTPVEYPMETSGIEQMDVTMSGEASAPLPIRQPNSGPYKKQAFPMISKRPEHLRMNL
UniProt P67809: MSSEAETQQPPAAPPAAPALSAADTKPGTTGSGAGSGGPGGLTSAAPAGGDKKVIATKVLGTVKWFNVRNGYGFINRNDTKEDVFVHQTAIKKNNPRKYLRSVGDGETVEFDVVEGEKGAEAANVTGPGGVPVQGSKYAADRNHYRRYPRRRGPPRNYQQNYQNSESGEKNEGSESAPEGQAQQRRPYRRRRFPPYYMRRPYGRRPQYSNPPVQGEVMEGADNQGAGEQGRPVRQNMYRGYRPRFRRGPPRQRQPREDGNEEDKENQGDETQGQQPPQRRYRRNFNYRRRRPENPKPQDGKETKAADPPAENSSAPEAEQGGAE

In test [2] the target is T1, SETD8 (lysine methyltransferase 5A) (human (endogenous in A673 and other ES cell lines)). Put plainly: co-IP; ES cell lysates incubated with primary antibodies overnight, beads 4 h, Western blot; normal IgG as negative control; also after mutation of Ser102 of YBX1 and after SETD8 knockdown. A general note: A western blot detects proteins with antibodies after separation by electrophoresis.

The target in test [3] is p70S6K (human (endogenous in ES cell lines)) (UniProt P23443). Described as above.

Results are given in words; binding and its absence hold for the method and conditions named. Binding seen in cells or lysates may run through a third protein. Some results given as binding are weak or reduced against the parent protein; the word gives no strength.

Turning to YBX1 (from UniProt P67809 1-324), the binding entry in test [1] and in test [2] was “binds” in each case. In the case of “YBX1 (from UniProt P67809 1-324) (other; other documents disagree on this pair)”, the binding result in test [3] is given as “no binding”.

Source of the values: paper PMC11237091.
